Measured values as given in US7781186B2, “Screening methods using normal human liver cell line” (The United States of America as represented by the …, priority 2000, dated 2010).
Some of these results come from one statement about several compounds together. At least one structure is not confirmed: it was looked up by name or label, or the drawing left a doubt.

System: mouse liver mitochondria
Assay: Mitochondrial inner transmembrane potential (ΔΨm), JC-1 probe, isolated liver mitochondria
Format: biochemical
Protocol: To explore whether LEF (the prodrug) or its active metabolite […]-1726 alter mitochondrial function including the Ca^2+ dependent, cyclosporine A-sensitive mPT, we isolated mouse liver mitochondria and exposed them to LEF or […]-1726, and measured the concentration-dependent effects on the mitochondrial inner transmembrane potential (ΔΨm) using the cationic fluorescent probe, JC-1. Furthermore, the effects on the inductin of the mPT were assessed by monitoring large amplitude swelling at 540 nm.

| SMILES | concentration attenuating the mitochondrial inner transmembrane potential (ΔΨm) [µM] |
| --- | --- |
| C/C(O)=C(\C#N)C(=O)Nc1ccc(C(F)(F)F)cc1 [A77-1726] | ≥ 1 |
| Cc1oncc1C(=O)Nc1ccc(C(F)(F)F)cc1 [LEF, Leflunomide] | ≥ 1 |
